Measurements: IntAct's records for PubMed 20802522

B1: Transcriptional activator Myb (Homo sapiens), P10242 (parent)
chain: MARRPRHSIYSSDEDDEDFEMCDHDYDGLLPKSGKRHLGKTRWTREEDEKLKKLVEQNGTDDWKVIANYLPNRTDVQCQHRWQKVLNPELIKGPWTKEEDQRVIELVQKYGPKRWSVIAKHLKGRIGKQCRERWHNHLNPEVKKTSWTEEEDRIIYQAHKRLGNRWAEIAKLLPGRTDNAIKNHWNSTMRRKVEQEGYLQESSKASQPAVATSFQKNSHLMGFAQAPPTAQLPATGQPTVNNDYSYYHISEAQNVSSHVPYPVALHVNIVNVPQPAAAAIQRHYNDEDPEKEKRIKELELLLMSTENELKGQQVLPTQNHTCSYPGWHSTTIADHTRPHGDSAPVSCLGEHHSTPSLPADPGSLPEESASPARCMIVHQGTILDNVKNLLEFAETLQFIDSFLNTSSNHENSDLEMPSLTSTPLIGHKLTVTTPFHRDQTVKTQKENTVFRTPAIKRSILESSPRTPTPFKHALAAQEIKYGPLKMLPQTPSHLVEDLQDVIKQESDESGIVAEFQENGPPLLKKIKQEVESPTDKSGNFFCSHHWEGDSLNTQLFTQTSPVADAPNILTSSVLMAPASEDEDNVLKAFTVPKNRSLASPLQPCSSTWEPASCGKMEEQMTSSSQARKYVNAFSARTLVM

Variants of: B1
Conditions: with sumo2_human SUMO2, P61956

Row | effect of a mutation on the interaction | Variant
1 | decreasing interaction | V267A;I269A;V270A

Variants of: B1
Conditions: with sumo2_human SUMO2, P61956
Remark: another data set of the same source

Row | effect of a mutation on the interaction | Variant
2 | increasing interaction | V267I;V270I
